Test results reported in patent US8394969B2, “Cyclic benzimidazole derivatives useful as anti-diabetic agents” (Merck Sharp & Dohme Corp., priority 2008, dated 2013).
pEC50: −log10 of the molar value. Counter-ions that a name gives are not always drawn. Some entries share one result that the patent states for a list of compounds.

By UniProt entry, the sequences of proteins in these tests, tags left out. Where a name states a change or a piece, a line headed by the entry shows the natural chain unless it says otherwise.
UniProt Q13131: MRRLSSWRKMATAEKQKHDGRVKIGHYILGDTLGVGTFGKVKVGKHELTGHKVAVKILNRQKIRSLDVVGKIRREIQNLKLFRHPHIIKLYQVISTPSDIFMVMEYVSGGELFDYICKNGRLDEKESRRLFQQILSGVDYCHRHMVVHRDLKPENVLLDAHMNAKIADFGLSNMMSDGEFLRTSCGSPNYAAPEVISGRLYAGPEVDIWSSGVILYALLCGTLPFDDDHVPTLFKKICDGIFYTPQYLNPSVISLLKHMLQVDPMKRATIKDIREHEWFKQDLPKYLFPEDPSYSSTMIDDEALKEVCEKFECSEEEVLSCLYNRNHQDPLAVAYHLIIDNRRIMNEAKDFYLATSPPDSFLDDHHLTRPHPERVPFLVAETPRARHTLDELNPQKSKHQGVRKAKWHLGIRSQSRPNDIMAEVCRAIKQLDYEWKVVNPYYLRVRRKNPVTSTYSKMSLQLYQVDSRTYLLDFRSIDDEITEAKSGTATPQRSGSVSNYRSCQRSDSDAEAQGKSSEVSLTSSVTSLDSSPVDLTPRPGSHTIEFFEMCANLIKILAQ
UniProt Q9Y478: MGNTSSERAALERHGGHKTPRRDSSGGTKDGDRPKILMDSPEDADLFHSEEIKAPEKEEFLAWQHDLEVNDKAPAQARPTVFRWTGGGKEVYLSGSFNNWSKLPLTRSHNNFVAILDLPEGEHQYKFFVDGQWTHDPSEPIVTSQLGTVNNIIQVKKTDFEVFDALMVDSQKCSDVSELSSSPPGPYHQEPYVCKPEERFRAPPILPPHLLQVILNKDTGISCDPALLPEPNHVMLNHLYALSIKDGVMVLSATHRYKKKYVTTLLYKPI

Biological target: recombinant human AMPK complex 1 (containing α1β1γ1) (Homo sapiens, UniProt Q13131+Q9Y478)
Test: […] (in vitro AMPK activation assay)
Assay type: biochemical
Conditions: recombinant human AMPK complex 1 (α1β1γ1)
Description: Recombinant viruses were generated by cotransfection of AMPK/pBacPak9 clones with Baculogold baculovirus DNA (Pharmingen) in spodoptera frugiperda 21 cells according to the manufacturer's instructions. Each round of virus amplification was performed for 5 days in Grace's medium containing 10% serum. Virus that had been subjected to three rounds of amplification was used for all protein production procedures. To express the AMPK complex, sf21 cells were adapted to serum free medium (SF900 II, Invitrogen) by sequential dilution from serum containing stocks into SF900 II medium and maintained in shaker flasks at 90 rpm at 27° C. The recombinant AMPK enzyme complex was produced by triple infection, one recombinant virus for each of the subunits, in sf21 cells under serum free conditions. […] Cells were harvested by centrifugation at 10,000×g for 15 minutes after 72 hours of infection with viruses. The insect cell pellet from 2 liters of culture was resuspended in 50 ml lysis buffer (20 mM Tris-HCl, 50 mM NaCl, 50 mM NaF, 30 mM Na PPi, 0.25 M sucrose, 10 mM ZnCl2, 2 mM DTT, 0.4 mg/ml digitonin) and subjected to two cycles of freeze-thaw lysis in a dry-ice ethanol bath. Insoluble material was removed by centrifugation at 10,000×g and the supernatant was fractionated with use of polyethylene glycol (PEG).
The total in vitro AMPK activation assay volume is 50 μl in a 96-well plate. […] The reaction was initiated with addition of the enzyme. After 30-minute incubation at 30° C., the reaction was stopped by addition of 80 μl 1% H3PO4. Aliquots (100 μl) were transferred to 96-well MultiScreen plates (MAPHNOB50; Millipore Corp., Bedford, Mass., USA). The plate was washed three times with 1% H3PO4 followed by detection in a Top-count. The counts per minute from the basal activity (the reaction without activator) was subtracted from each well and the data were expressed as % maximum AMP activation followed by EC50 calculation.

Compound	pEC50
OCc1cccc(Oc2nc3cc(-c4ccc(-c5ccccc5)cc4)c(Cl)cc3[nH]2)c1 [Example 37, [3-(5-Biphenyl-4-yl-6-chloro-1H-benzoimidazol-2-yloxy)-phenyl]-methanol]	> 5.00
O=C(O)c1ccc(Oc2nc3cc(-c4ccc(-c5ccccc5)cc4)c(Cl)cc3[nH]2)cc1 [Example 38, 4-(5-Biphenyl-4-yl-6-chloro-1H-benzoimidazol-2-yloxy)-benzoic acid]	> 5.00
O=C(O)c1ccc(Oc2nc3cc(-c4ccc(-c5ccccc5)cc4)c(Cl)cc3[nH]2)cc1Cl [Example 39, 4-(5-Biphenyl-4-yl-6-chloro-1H-benzoimidazol-2-yloxy)-2-chloro-benzoic acid]	> 5.00
O=C(O)Cn1nnc(-c2cccc(Oc3nc4cc(-c5ccc(-c6ccccc6)cc5)c(Cl)cc4[nH]3)c2)n1 [Example 40, {5-[3-(5-Biphenyl-4-yl-6-chloro-1H-benzoimidazol-2-yloxy)-phenyl]-tetrazol-2-yl}-acetic acid]	> 5.00
COC(=O)Cn1nnc(-c2cccc(Oc3nc4cc(-c5ccc(-c6ccccc6)cc5)c(Cl)cc4[nH]3)c2)n1 [Example 41, {5-[3-(5-Biphenyl-4-yl-6-chloro-1H-benzoimidazol-2-yloxy)-phenyl]-tetrazol-2-yl}-acetic acid methyl ester]	> 5.00
N#Cc1cccc(Oc2nc3cc(-c4ccc(-c5ccccc5)cc4)c(Cl)cc3[nH]2)c1 [Example 42, 3-(5-Biphenyl-4-yl-6-chloro-1H-benzoimidazol-2-yloxy)-benzonitrile]	> 5.00
Cc1ccc(C#Cc2cc3nc(Oc4ccc(C)c(C(=O)O)c4)[nH]c3cc2Cl)cc1 [Example 45, 5-(6-Chloro-5-p-tolyethylnyl-1H-benzoimidazol-2-yloxy)-2-methyl-benzoic acid]	> 5.00
O=c1[nH]nc(-c2cccc(Oc3nc4cc(-c5ccc(-c6ccccc6)cc5)c(Cl)cc4[nH]3)c2)o1 [Example 47, 5-[3-(5-Biphenyl-4-yl-6-chloro-1H-benzoimidazol-2-yloxy)-phenyl]-3H-[1,3,4]oxadiazol-2-one]	> 5.00
O=C(O)c1cc(Oc2nc3cc(C#Cc4ccccc4)c(Cl)cc3[nH]2)cc(C(=O)O)c1 [Example 48, 5-(6-Chloro-5-phenylethynyl-1H-benzoimidazol-2-yloxy)-isophthalic acid]	> 5.00
COC(=O)c1cc(Oc2nc3cc(C#Cc4ccccc4)c(Cl)cc3[nH]2)cc(C(=O)OC)c1 [Example 49, 5-(6-Chloro-5-phenylethynyl-1H-benzoimidazol-2-yloxy)-isophthalic acid dimethyl ester]	> 5.00
Cc1cc(Oc2nc3cc(-c4ccc(-c5ccccc5)cc4)c(Cl)cc3[nH]2)cc(C(=O)O)c1 [Example 50, 3-(5-Biphenyl-4-yl-6-chloro-1H-benzoimidazol-2-yloxy)-5-methyl-benzoic acid]	> 5.00
Cc1ccc(Oc2nc3cc(CCc4ccccc4)c(Cl)cc3[nH]2)cc1C(=O)O [Example 51, 5-(6-Chloro-5-phenethyl-1H-benzoimidazol-2-yloxy)-2-methyl-benzoic acid]	> 5.00
O=C(O)c1cccc(Nc2nc3cc(-c4ccc(-c5ccccc5O)cc4)c(Cl)cc3[nH]2)c1 [Example 52, 3-[6-Chloro-5-(2′-hydroxy-biphenyl-4-yl)-1H-benzoimidazol-2-ylamino]-benzoic acid]	> 5.00
Cc1cc(Oc2nc3cc(-c4ccc(-c5ccccc5O)cc4)c(Cl)cc3[nH]2)cc(C(=O)O)c1 [Example 53, 3-[6-Chloro-5-(2′-hydroxy-biphenyl-4-yl)-1H-benzoimidazol-2-yloxy]-5-methyl-benzoic acid]	> 5.00
O=C(O)c1cc(Oc2nc3cc(-c4ccc(-c5ccccc5O)cc4)c(Cl)cc3[nH]2)cc(C(=O)O)c1 [Example 54, 5-[6-Chloro-5-(2′-hydroxy-biphenyl-4-yl)-1H-benzoimidazol-2-yloxy]-isophthalic acid]	> 5.00
O=C(O)Cn1nnnc1Sc1nc2cc(-c3ccc(-c4ccccc4)cc3)c(Cl)cc2[nH]1 [Example 55, [5-(5-biphenyl-4-yl-6-chloro-1H-benzo-imidazol-2-ylsulfanyl)-tetrazol-1-yl]-acid, ammonium salt]	> 5.00
Cc1ccc(Oc2nc3cc(-c4cnn(C)c4)c(Cl)cc3[nH]2)cc1C(=O)O [Example 57, 5-[6-Chloro-5-(1-methyl-1H-pyrazol-4-yl)-1H-benzoimidazol-2-yloxy]-2-methyl-benzoic acid]	> 5.00

Compound	pEC50
Cc1ccc(Oc2nc3cc(-c4ccc(-n5cccn5)cc4)c(Cl)cc3[nH]2)cc1C(=O)O [Example 58, 5-[6-Chloro-5-(4-pyrazol-1-yl-phenyl)-1H-benzoimidazol-2-yloxy]-2-methyl-benzoic acid]	> 5.00
O=C(O)c1cc(Oc2nc3cc(-c4ccccc4O)c(Cl)cc3[nH]2)ccc1Cl [Example 59, 2-Chloro-5-[6-chloro-5-(2-hydroxy-phenyl)-1H-benzoimidazol-2-yloxy]-benzoic acid]	> 5.00
O=C(O)c1cc(Oc2nc3cc(-c4ccc(CO)cc4)c(Cl)cc3[nH]2)ccc1Cl [Example 60, 2-Chloro-5-[6-chloro-5-(4-hydroxymethyl-phenyl)-1H-benzoimidazol-2-yloxy]-benzoic acid]	> 5.00
O=C(O)c1cc(Oc2nc3cc(-c4ccccc4)c(Cl)cc3[nH]2)ccc1Cl [Example 61, 2-Chloro-5-(6-chloro-5-phenyl-1H-benzoimidazol-2-yloxy)-benzoic acid]	> 5.00
O=C(O)c1cccc(Sc2nc3cc(-c4cccs4)c(Cl)cc3[nH]2)c1 [Example 65, 3-{[6-chloro-5-(2-thienyl)-1H-benzimidazol-2-yl]thio}benzoic acid]	> 5.00
Cc1ccc(Oc2nc3cc(-c4ccc5ccccc5c4)c(Cl)cc3[nH]2)cc1C(=O)O [Example 66, 5-{[6-chloro-5-(2-naphthyl)-1H-benzimidazol-2-yl]oxy}-2-methylbenzoic acid]	> 5.00
Cc1ccc(Oc2nc3cc(C#Cc4ccccc4F)c(Cl)cc3[nH]2)cc1C(=O)O [Example 67, 5({6-chloro-5-[(2-fluorophenyl)ethynyl]-1H-benzimidazol-2-yl}oxy)-2-methylbenzoic acid]	> 5.00
Cc1ccc(Oc2nc3cc(-c4ccc(-c5ccc(=O)n(C)c5)cc4)c(Cl)cc3[nH]2)cc1C(=O)O [Example 68, 5-({6-chloro-5-[4-(1-methyl-6-oxo-1,6-dihydropyridin-3-yl)phenyl]-1H-benzimidazol-2-yl}oxy)-2-methylbenzoic acid]	> 5.00
Cc1ccc(Oc2nc3cc(C#Cc4ccc(CCO)cc4)c(Cl)cc3[nH]2)cc1C(=O)O [Example 69, 5-{6-chloro-5-[4-(2-hydroxy-ethyl)-phenylethynyl]-1H-benzoimidazol-2-yloxy}-2-methyl-benzoic acid]	> 5.00
Cc1ccc(Oc2nc3cc(C#Cc4ccc(-c5cccnc5)cc4)c(Cl)cc3[nH]2)cc1C(=O)O [Example 70, 5-[6-Chloro-5-(4-pyridin-3-yl-phenylethynyl)-1H-benzoimidazol-2-yloxy]-2-methyl-benzoic acid]	> 5.00
Cc1ccc(Oc2nc3cc(C#Cc4ccc(-n5cccn5)cc4)c(Cl)cc3[nH]2)cc1C(=O)O [Example 71, 5-[6-Chloro-5-(4-pyrazol-1-yl-phenylethynyl)-1H-benzoimidazol-2-yloxy]-2-methyl-benzoic acid]	> 5.00
Cc1ccc(Oc2nc3cc(C#Cc4ccc(CN)cc4)c(Cl)cc3[nH]2)cc1C(=O)O [Example 72, 5-[5-(4-Aminomethyl-phenylethynyl)-6-chloro-1H-benzimidazol-2-yloxy]-2-methyl-benzoic acid]	> 5.00
Cc1ccc(Oc2nc3cc(C#Cc4ccc(-c5ncc[nH]5)cc4)c(Cl)cc3[nH]2)cc1C(=O)O [Example 73, 5-{6-Chloro-5-[4-(1H-imidazol-2-yl)-phenylethynyl]1H-benzoimidazol-2-yloxy}-2-methyl-benzoic acid]	> 5.00
Cc1ccc(Oc2nc3cc(C#Cc4ccc(-c5cc[nH]n5)cc4)c(Cl)cc3[nH]2)cc1C(=O)O [Example 74, 5-{6-Chloro-5-[4-(1H-pyrazol-3-yl)-phenylethynyl]-1H-benzoimidazol-2-yloxy}-2-methyl-benzoic acid]	> 5.00
Cc1ccc(Oc2nc3cc(C#Cc4ccc(-c5cnc[nH]5)cc4)c(Cl)cc3[nH]2)cc1C(=O)O [Example 75, 5-{6-Chloro-5-[4-(3H-imidazol-4-yl)-phenylethynyl]-1H-benzoimidazol-2-yloxy}-2-methyl-benzoic acid]	> 5.00
Cc1ccc(Oc2nc3cc(C#Cc4ccc(F)cc4F)c(Cl)cc3[nH]2)cc1C(=O)O [Example 76, 5-[6-Chloro-5-(2,4-difluoro-phenylethynyl)-1H-benzoimidazol-2-yloxy]-2-methyl-benzoic acid]	> 5.00
